± gives the standard deviation of the averaged measurements. Some of the results follow.
Compound: Nc1nc2c(ncn2[C@@H]2O[C@H](COP(=O)(O)OP(=O)(O)OP(=O)(O)O)[C@@H](O)[C@H]2O)c(=O)[nH]1 [guanosine triphosphate]
Experiment: NP40-soluble protein abundance relative to vehicle (solubility fold change) (ratio); higher = more soluble protein in presence of GTP
How it was run: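 In three independent experiments, Jurkat crude lysate made by Dounce homogenisation was treated for 10 min at room temperature and then 3 min at 37 °C with eight concentrations ranging from 0.1 to 10 mM. It was then solubilised with 0.8% NP40 plus benzonase for 60 min at 4 °C and ultracentrifuged. The supernatant was TMT-labelled for LC-MS/MS, and each value is the fold change against the detergent-processed vehicle for the same replicate, using vsn-normalised intensities.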

Protein sequences, listed by entry. Tags and fused reporters are not part of them. Lines headed by an entry give the natural chain unless they say otherwise; changes in a name come on top.
UniProt Q9BTV5: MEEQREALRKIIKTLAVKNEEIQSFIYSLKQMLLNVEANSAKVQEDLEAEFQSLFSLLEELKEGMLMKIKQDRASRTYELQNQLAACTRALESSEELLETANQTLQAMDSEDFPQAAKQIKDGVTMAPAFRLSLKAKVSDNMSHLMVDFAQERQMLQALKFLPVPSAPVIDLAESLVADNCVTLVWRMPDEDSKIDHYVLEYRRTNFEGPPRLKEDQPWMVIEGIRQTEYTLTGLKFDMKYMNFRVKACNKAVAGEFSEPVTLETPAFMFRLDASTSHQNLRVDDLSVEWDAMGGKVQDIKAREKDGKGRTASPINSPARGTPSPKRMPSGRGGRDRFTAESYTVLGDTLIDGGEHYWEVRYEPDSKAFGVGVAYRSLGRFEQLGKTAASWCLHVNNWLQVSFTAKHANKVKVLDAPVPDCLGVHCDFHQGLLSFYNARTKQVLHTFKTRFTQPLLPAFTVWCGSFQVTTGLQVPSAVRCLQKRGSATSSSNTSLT
UniProt Q96QC0: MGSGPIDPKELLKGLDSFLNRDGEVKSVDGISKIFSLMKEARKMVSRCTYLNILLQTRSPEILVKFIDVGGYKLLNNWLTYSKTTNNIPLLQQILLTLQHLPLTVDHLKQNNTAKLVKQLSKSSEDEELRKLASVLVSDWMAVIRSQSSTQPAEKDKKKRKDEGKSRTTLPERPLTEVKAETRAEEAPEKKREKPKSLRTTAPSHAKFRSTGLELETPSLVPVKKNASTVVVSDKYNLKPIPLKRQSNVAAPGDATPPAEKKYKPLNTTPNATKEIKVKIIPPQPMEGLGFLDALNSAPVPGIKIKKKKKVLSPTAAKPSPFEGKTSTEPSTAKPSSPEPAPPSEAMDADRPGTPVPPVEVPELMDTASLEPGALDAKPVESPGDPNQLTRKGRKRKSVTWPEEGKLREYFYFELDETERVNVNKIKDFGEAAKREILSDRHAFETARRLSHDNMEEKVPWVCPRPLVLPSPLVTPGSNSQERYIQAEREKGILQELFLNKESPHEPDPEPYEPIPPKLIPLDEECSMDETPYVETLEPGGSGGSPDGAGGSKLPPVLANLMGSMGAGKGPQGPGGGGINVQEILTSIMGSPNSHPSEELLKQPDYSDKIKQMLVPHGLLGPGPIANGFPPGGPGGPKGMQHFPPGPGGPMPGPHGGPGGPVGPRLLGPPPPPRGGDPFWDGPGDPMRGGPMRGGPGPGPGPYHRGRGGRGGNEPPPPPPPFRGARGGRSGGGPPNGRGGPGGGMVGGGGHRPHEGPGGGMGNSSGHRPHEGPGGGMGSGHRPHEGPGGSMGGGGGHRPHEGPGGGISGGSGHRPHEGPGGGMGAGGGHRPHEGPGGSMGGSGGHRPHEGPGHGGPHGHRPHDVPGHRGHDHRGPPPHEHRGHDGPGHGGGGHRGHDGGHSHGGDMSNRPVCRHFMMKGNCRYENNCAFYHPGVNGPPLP
UniProt Q96RY7: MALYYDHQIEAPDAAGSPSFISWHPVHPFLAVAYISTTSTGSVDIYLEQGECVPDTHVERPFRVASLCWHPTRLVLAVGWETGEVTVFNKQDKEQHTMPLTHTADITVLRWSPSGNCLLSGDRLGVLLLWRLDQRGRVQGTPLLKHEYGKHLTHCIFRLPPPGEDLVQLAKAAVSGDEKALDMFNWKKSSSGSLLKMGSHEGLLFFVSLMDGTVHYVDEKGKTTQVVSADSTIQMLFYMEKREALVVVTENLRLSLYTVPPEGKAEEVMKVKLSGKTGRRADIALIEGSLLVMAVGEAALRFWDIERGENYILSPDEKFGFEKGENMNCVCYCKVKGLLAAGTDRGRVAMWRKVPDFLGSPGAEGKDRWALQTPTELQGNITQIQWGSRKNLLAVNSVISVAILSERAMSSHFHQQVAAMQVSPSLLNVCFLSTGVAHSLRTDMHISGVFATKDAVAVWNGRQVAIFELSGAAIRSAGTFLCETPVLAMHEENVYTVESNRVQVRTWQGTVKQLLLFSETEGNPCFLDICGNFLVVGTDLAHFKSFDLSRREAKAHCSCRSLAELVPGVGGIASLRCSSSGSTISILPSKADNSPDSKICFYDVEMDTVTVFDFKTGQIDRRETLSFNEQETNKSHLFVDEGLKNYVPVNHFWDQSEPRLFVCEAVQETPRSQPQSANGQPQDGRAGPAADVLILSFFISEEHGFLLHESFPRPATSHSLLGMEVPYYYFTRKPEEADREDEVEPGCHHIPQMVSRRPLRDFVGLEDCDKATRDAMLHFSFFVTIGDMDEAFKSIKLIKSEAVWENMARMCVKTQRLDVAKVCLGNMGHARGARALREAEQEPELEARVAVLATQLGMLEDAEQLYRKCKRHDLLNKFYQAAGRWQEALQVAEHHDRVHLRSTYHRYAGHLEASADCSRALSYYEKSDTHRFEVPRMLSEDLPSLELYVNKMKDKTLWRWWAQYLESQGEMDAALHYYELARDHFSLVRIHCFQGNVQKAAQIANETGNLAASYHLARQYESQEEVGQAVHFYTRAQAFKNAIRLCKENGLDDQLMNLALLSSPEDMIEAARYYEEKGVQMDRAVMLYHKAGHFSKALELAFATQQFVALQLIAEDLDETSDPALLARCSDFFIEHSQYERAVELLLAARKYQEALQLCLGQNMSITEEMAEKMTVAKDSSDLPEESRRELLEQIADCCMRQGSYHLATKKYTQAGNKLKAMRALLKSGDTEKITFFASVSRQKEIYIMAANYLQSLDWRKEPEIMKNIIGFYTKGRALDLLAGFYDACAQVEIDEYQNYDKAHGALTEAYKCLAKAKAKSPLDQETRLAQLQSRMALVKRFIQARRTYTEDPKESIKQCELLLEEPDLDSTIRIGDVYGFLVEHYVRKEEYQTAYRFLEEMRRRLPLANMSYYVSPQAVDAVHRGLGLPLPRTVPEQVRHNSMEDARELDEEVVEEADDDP
UniProt Q9BWJ5: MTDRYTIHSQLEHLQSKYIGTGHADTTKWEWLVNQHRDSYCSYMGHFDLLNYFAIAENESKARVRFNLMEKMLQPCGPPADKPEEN
UniProt Q9BXS6: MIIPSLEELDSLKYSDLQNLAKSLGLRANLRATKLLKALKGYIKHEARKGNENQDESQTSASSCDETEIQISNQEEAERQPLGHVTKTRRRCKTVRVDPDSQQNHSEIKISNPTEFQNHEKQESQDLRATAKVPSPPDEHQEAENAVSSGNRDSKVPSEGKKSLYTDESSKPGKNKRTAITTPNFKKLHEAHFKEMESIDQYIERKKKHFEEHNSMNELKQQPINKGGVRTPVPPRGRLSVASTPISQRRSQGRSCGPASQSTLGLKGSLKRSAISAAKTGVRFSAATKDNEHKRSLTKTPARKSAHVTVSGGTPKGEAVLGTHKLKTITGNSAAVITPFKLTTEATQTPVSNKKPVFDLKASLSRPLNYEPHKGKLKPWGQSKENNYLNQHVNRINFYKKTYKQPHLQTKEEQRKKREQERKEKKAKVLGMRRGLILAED
UniProt Q9BZE2: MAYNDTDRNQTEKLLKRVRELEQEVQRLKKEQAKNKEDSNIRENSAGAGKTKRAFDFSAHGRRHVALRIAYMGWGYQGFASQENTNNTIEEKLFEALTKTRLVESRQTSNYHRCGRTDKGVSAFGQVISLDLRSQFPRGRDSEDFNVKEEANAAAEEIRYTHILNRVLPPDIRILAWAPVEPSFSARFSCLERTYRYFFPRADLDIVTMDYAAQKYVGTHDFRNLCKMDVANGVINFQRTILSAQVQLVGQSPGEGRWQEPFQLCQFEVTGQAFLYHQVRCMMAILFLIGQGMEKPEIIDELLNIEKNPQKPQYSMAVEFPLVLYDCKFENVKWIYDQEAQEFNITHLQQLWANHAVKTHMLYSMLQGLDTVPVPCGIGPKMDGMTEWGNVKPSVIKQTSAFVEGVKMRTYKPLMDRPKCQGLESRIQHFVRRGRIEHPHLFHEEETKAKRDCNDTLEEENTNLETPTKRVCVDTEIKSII
UniProt Q9BW27: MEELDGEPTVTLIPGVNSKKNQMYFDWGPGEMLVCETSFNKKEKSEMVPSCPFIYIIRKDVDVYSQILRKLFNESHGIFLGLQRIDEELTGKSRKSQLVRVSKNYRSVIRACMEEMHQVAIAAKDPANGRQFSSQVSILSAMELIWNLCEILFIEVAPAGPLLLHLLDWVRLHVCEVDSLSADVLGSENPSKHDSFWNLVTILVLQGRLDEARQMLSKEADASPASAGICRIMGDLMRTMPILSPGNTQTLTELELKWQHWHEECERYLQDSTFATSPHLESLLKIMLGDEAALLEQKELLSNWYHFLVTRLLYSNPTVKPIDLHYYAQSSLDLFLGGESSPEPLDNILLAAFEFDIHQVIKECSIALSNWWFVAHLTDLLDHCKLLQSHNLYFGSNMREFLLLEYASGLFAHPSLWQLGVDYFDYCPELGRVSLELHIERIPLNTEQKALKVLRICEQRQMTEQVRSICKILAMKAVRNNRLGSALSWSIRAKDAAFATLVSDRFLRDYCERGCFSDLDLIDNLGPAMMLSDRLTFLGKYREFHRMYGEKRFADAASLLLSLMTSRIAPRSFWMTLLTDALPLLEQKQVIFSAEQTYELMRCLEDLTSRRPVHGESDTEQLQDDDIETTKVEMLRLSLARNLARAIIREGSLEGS
UniProt Q9BVA0, whole entry: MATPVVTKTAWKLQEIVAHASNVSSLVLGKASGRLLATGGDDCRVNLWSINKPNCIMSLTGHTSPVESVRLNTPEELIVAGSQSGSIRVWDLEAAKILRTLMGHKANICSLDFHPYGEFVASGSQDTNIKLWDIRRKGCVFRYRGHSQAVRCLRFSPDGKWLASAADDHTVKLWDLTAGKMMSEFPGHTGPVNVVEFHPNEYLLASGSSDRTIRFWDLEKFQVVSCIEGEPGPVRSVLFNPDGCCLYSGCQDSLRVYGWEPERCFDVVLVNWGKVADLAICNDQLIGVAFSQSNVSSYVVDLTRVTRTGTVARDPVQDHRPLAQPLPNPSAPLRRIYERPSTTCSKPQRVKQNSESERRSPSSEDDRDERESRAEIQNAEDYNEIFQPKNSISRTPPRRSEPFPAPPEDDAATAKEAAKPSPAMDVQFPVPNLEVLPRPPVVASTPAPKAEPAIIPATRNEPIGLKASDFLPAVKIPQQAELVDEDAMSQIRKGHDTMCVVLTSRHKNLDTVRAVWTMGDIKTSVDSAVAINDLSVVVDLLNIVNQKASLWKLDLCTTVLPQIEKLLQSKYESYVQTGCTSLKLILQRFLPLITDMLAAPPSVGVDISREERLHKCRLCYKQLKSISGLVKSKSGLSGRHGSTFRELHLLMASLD
UniProt Q96QR8: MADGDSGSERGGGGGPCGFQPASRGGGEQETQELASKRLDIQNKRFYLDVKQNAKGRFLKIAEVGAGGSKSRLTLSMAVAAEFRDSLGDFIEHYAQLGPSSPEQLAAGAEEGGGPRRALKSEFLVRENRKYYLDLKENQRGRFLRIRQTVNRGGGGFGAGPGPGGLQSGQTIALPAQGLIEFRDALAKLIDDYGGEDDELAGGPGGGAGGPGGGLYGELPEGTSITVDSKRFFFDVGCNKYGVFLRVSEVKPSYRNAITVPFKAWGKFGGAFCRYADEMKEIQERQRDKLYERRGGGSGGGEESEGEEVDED
UniProt Q9BYE7: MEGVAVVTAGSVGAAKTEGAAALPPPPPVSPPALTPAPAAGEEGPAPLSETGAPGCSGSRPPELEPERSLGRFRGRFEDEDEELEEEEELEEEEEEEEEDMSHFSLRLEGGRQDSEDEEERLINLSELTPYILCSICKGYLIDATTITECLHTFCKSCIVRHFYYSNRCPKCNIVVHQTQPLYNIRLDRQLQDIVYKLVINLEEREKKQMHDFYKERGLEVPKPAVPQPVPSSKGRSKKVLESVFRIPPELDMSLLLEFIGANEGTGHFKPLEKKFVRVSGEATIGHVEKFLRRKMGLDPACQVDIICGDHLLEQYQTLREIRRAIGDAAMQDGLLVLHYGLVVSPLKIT
UniProt Q9BSC4: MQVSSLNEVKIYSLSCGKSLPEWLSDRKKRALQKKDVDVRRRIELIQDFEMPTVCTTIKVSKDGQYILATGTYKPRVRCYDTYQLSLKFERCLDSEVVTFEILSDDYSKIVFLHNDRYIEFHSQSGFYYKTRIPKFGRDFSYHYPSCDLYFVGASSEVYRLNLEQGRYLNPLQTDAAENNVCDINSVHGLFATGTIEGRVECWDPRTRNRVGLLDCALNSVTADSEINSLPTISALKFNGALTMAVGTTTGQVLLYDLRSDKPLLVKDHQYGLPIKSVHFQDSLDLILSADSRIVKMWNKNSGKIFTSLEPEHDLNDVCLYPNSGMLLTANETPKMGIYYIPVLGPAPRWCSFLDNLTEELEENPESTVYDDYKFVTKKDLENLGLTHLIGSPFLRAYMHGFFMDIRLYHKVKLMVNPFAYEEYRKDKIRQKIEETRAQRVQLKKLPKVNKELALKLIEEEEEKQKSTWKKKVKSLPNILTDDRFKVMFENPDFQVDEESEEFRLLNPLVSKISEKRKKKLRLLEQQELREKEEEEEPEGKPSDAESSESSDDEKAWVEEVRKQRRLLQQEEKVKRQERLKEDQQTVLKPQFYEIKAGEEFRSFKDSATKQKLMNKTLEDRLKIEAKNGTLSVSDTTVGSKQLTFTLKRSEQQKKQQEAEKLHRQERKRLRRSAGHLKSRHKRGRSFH

| Target | NP40-soluble protein abundance (concentration: 0.1mM) | NP40-soluble protein abundance (concentration: 0.5mM) | NP40-soluble protein abundance (concentration: 1mM) | NP40-soluble protein abundance (concentration: 2mM) | NP40-soluble protein abundance (concentration: 4mM) | NP40-soluble protein abundance (concentration: 6mM) | NP40-soluble protein abundance (concentration: 8mM) | NP40-soluble protein abundance (concentration: 10mM) |
| --- | --- | --- | --- | --- | --- | --- | --- | --- |
| UniProt Q9BV86 | 1 ± 0.049 | 1.02 ± 0.014 | 0.934 ± 0.025 | 0.93 ± 0.071 | 0.941 ± 0.053 | 0.888 ± 0.043 | 0.876 ± 0.12 | 0.881 ± 0.1 |
| UniProt Q99653 | 0.94 ± 0.016 | 0.937 ± 0.036 | 0.921 ± 0.076 | 0.945 ± 0.018 | 0.982 ± 0.023 | 0.929 ± 0.043 | 0.9 ± 0.039 | 0.913 ± 0.016 |
| UniProt Q9BVI0 and related entries | 1.11 ± 0.068 | 1.07 ± 0.12 | 1.19 ± 0.078 | 1.27 ± 0.057 | 1.52 ± 0.056 | 1.553 ± 0.012 | 1.77 ± 0.08 | 1.71 ± 0.071 |
| FSD1 (UniProt Q9BTV5) | 1.02 ± 0.071 | 1.09 ± 0.086 | 1.02 ± 0.062 | 0.998 ± 0.12 | 1.02 ± 0.12 | 1.02 ± 0.13 | 0.949 ± 0.072 | 0.969 ± 0.11 |
| PPP1R10 (UniProt Q96QC0) | 0.976 ± 0.029 | 0.99 ± 0.03 | 1.03 ± 0.036 | 1.04 ± 0.025 | 1.06 ± 0.029 | 1.096 ± 0.0059 | 1.13 ± 0.052 | 1.14 ± 0.05 |
| UniProt Q96ST2 and related entries | 1.06 ± 0.091 | 0.966 ± 0.044 | 1.07 ± 0.084 | 0.97 ± 0.096 | 1.01 ± 0.11 | 0.907 ± 0.077 | 0.993 ± 0.14 | 0.889 ± 0.091 |
| IFT140 (UniProt Q96RY7) | 1.11 ± 0.22 | 1.17 ± 0.23 | 1.09 ± 0.14 | 1.15 ± 0.13 | 1.14 ± 0.09 | 1.11 ± 0.026 | 1.13 ± 0.065 | 1.14 ± 0.11 |
| BUD13 (UniProt Q9BRD0) | 1.1 ± 0.024 | 0.995 ± 0.057 | 1.14 ± 0.03 | 1.15 ± 0.11 | 1.12 ± 0.071 | 1.18 ± 0.12 | 1.193 ± 0.0098 | 1.27 ± 0.15 |
| ZNF512B (UniProt Q96KM6) | 0.97 ± 0.047 | 1.02 ± 0.028 | 1.08 ± 0.066 | 1.08 ± 0.07 | 1.07 ± 0.04 | 1.11 ± 0.069 | 1.11 ± 0.085 | 1.2 ± 0.066 |
| SF3B5 (UniProt Q9BWJ5) | 1.1 ± 0.16 | 1.11 ± 0.16 | 1.17 ± 0.23 | 1.27 ± 0.2 | 1.25 ± 0.21 | 1.33 ± 0.15 | 1.31 ± 0.19 | 1.38 ± 0.22 |
| UniProt Q9BQG0 and related entries | 0.997 ± 0.011 | 1.01 ± 0.019 | 1.01 ± 0.038 | 0.989 ± 0.013 | 0.959 ± 0.036 | 0.938 ± 0.028 | 0.96 ± 0.042 | 0.942 ± 0.044 |
| ZNF830 (UniProt Q96NB3) | 0.965 ± 0.13 | 0.983 ± 0.065 | 1.19 ± 0.18 | 1.14 ± 0.14 | 1.12 ± 0.085 | 1.09 ± 0.1 | 1.1 ± 0.13 | 1.19 ± 0.16 |
| HEMGN (UniProt Q9BXL5) | 0.943 ± 0.05 | 0.978 ± 0.058 | 1.04 ± 0.12 | 1.04 ± 0.11 | 0.98 ± 0.11 | 0.994 ± 0.15 | 1.03 ± 0.052 | 1.09 ± 0.034 |
| HINT2 (UniProt Q9BX68) | 1.01 ± 0.095 | 0.918 ± 0.031 | 0.987 ± 0.088 | 0.945 ± 0.12 | 0.998 ± 0.056 | 0.919 ± 0.052 | 0.988 ± 0.13 | 0.962 ± 0.1 |
| UniProt Q9BXS6 and related entries | 0.87 ± 0.079 | 0.764 ± 0.12 | 0.727 ± 0.11 | 0.768 ± 0.18 | 0.772 ± 0.16 | 0.737 ± 0.15 | 0.762 ± 0.11 | 0.806 ± 0.22 |
| PUS3 (UniProt Q9BZE2) | 1.04 ± 0.054 | 1.03 ± 0.068 | 0.975 ± 0.1 | 0.947 ± 0.1 | 0.968 ± 0.048 | 0.912 ± 0.024 | 0.957 ± 0.095 | 0.881 ± 0.0091 |
| UniProt Q9BPZ7 and related entries | 0.977 ± 0.011 | 1.07 ± 0.11 | 1.05 ± 0.075 | 1.07 ± 0.092 | 1.1 ± 0.059 | 1.117 ± 0.0017 | 1.03 ± 0.05 | 1.017 ± 0.0057 |
| TMED9 (UniProt Q9BVK6) | 0.994 ± 0.02 | 1.027 ± 0.0033 | 0.946 ± 0.025 | 0.922 ± 0.029 | 0.919 ± 0.037 | 0.909 ± 0.017 | 0.915 ± 0.041 | 0.901 ± 0.051 |
| NUP85 (UniProt Q9BW27) | 1.13 ± 0.072 | 1.12 ± 0.094 | 0.989 ± 0.043 | 1.02 ± 0.099 | 1.03 ± 0.11 | 1 ± 0.19 | 0.975 ± 0.033 | 1.02 ± 0.13 |
| KATNB1 (UniProt Q9BVA0) | 1.04 ± 0.024 | 1.05 ± 0.039 | 1.01 ± 0.039 | 0.987 ± 0.052 | 1.01 ± 0.043 | 0.971 ± 0.037 | 1.01 ± 0.048 | 0.966 ± 0.074 |
| UniProt Q96L92 and related entries | 1.03 ± 0.04 | 1.01 ± 0.079 | 0.926 ± 0.034 | 0.962 ± 0.084 | 0.94 ± 0.088 | 0.924 ± 0.04 | 0.886 ± 0.044 | 0.876 ± 0.1 |
| UniProt Q9BSW2-2 | 1.02 ± 0.035 | 1.03 ± 0.055 | 1.06 ± 0.035 | 1.01 ± 0.083 | 0.987 ± 0.056 | 0.979 ± 0.11 | 0.999 ± 0.008 | 1.04 ± 0.031 |
| CNDP2 (UniProt Q96KP4) | 0.976 ± 0.025 | 0.985 ± 0.0099 | 0.935 ± 0.04 | 0.907 ± 0.039 | 0.886 ± 0.057 | 0.885 ± 0.035 | 0.861 ± 0.044 | 0.853 ± 0.071 |
| PURB (UniProt Q96QR8) | 0.946 ± 0.045 | 0.935 ± 0.049 | 0.966 ± 0.073 | 0.92 ± 0.053 | 0.927 ± 0.078 | 0.9 ± 0.071 | 0.902 ± 0.057 | 0.913 ± 0.067 |
| PCGF6 (UniProt Q9BYE7) | 1.03 ± 0.11 | 1.12 ± 0.056 | 0.983 ± 0.073 | 0.959 ± 0.14 | 1.04 ± 0.038 | 1.069 ± 0.0046 | 1.01 ± 0.11 | 0.988 ± 0.026 |
| ARID3A (UniProt Q99856) | 0.959 ± 0.084 | 0.94 ± 0.09 | 1.02 ± 0.12 | 0.966 ± 0.15 | 0.935 ± 0.098 | 0.942 ± 0.1 | 0.986 ± 0.076 | 0.991 ± 0.091 |
| UniProt Q9BSH4 | 0.988 ± 0.038 | 0.991 ± 0.047 | 0.915 ± 0.023 | 0.916 ± 0.0096 | 0.877 ± 0.021 | 0.881 ± 0.022 | 0.864 ± 0.031 | 0.843 ± 0.077 |
| CDC5L (UniProt Q99459) | 0.972 ± 0.041 | 0.992 ± 0.046 | 1.02 ± 0.025 | 1.03 ± 0.052 | 1.06 ± 0.041 | 1.13 ± 0.046 | 1.16 ± 0.083 | 1.19 ± 0.09 |
| UniProt Q9BSC4 and related entries | 0.98 ± 0.12 | 1.03 ± 0.1 | 1.13 ± 0.13 | 1.21 ± 0.17 | 1.3 ± 0.18 | 1.39 ± 0.16 | 1.49 ± 0.18 | 1.64 ± 0.24 |
| UniProt Q99720 and related entries | 1.09 ± 0.12 | 1.05 ± 0.071 | 0.888 ± 0.028 | 0.892 ± 0.09 | 0.836 ± 0.1 | 0.813 ± 0.12 | 0.788 ± 0.008 | 0.767 ± 0.15 |

Part of the list above in another layout.
Target	NP40-soluble protein abundance (concentration: 0.1mM)	NP40-soluble protein abundance (concentration: 0.5mM)	NP40-soluble protein abundance (concentration: 1mM)	NP40-soluble protein abundance (concentration: 2mM)	NP40-soluble protein abundance (concentration: 4mM)	NP40-soluble protein abundance (concentration: 6mM)	NP40-soluble protein abundance (concentration: 8mM)	NP40-soluble protein abundance (concentration: 10mM)
HINT2 (UniProt Q9BX68)	1.01 ± 0.095	0.918 ± 0.031	0.987 ± 0.088	0.945 ± 0.12	0.998 ± 0.056	0.919 ± 0.052	0.988 ± 0.13	0.962 ± 0.1
TMED9 (UniProt Q9BVK6)	0.994 ± 0.02	1.027 ± 0.0033	0.946 ± 0.025	0.922 ± 0.029	0.919 ± 0.037	0.909 ± 0.017	0.915 ± 0.041	0.901 ± 0.051

Reference: the supplement of paper PMC6411743
